# Source: the supplement of paper PMC8728848
# Some of the results follow.
# How the values were obtained:
# Test in all cases: glycan array binding signal (z-score within array); higher = stronger binding
# Details in all cases: glycan notation: IUPAC condensed, linker removed
# [1] = target: Neu5Ac(a2-3)Gal(b1-4)GlcNAc(b1-6)GalNAc
# Method in brief: (§1)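 The Consortium for Functional Glycomics database supplied 3228 glycan arrays, of which those lacking an available protein sequence were dropped. The binding signal, a within-array Z-score, was averaged across arrays of the same protein sequence and across linkers. Negative scores can be read as non-binding.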
# [2] = target: Neu5Ac(a2-3)Gal(b1-4)GlcNAc(b1-6)[Gal(b1-3)]GalNAc
# Method in brief: as §1
# [3] = target: Neu5Ac(a2-3)Gal(b1-4)GlcNAc(b1-6)[Neu5Ac(a2-3)Gal(b1-3)]GalNAc
# Method in brief: as §1
# [4] = target: Neu5Ac(a2-3)Gal(b1-4)GlcNAc6S
# Method in brief: as §1
# [5] = target: Neu5Ac(a2-3)Gal(b1-4)[Fuc(a1-3)]GlcNAc
# Method in brief: as §1
# [6] = target: Neu5Ac(a2-3)Gal(b1-4)[Fuc(a1-3)]GlcNAc(b1-2)Man
# Method in brief: as §1
# [7] = target: Neu5Ac(a2-3)Gal(b1-4)[Fuc(a1-3)]GlcNAc(b1-3)Gal
# Method in brief: as §1
# [8] = target: Neu5Ac(a2-3)Gal(b1-4)[Fuc(a1-3)]GlcNAc(b1-3)Gal(b1-4)GlcNAc
# Method in brief: as §1
# [9] = target: Neu5Ac(a2-3)Gal(b1-4)[Fuc(a1-3)]GlcNAc(b1-3)Gal(b1-4)[Fuc(a1-3)]GlcNAc(b1-3)Gal(b1-4)[Fuc(a1-3)]GlcNAc
# Method in brief: as §1
# [10] = target: Neu5Ac(a2-3)Gal(b1-4)[Fuc(a1-3)]GlcNAc(b1-3)GalNAc
# Method in brief: as §1
# [11] = target: Neu5Ac(a2-3)Gal(b1-4)[Fuc(a1-3)]GlcNAc(b1-6)[Gal(b1-3)]GalNAc
# Method in brief: as §1
# [12] = target: Neu5Ac(a2-3)Gal(b1-4)[Fuc(a1-3)]GlcNAc(b1-6)[Neu5Ac(a2-3)Gal(b1-3)]GalNAc
# Method in brief: as §1
# [13] = target: Neu5Ac(a2-3)Gal(b1-4)[Fuc(a1-3)]GlcNAc6S
# Method in brief: as §1
# [14] = target: Neu5Ac(a2-3)Gal6S(b1-4)GlcNAc
# Method in brief: as §1
# [15] = target: Neu5Ac(a2-3)Gal6S(b1-4)[Fuc(a1-3)]GlcNAc
# Method in brief: as §1
# Neu5Ac(a2-3)GalNAc = target: Neu5Ac(a2-3)GalNAc
# Method in brief: as §1
# [16] = target: Neu5Ac(a2-3)GalNAc(b1-4)GlcNAc
# Method in brief: as §1
# [17] = target: Neu5Ac(a2-3)[GalNAc(b1-4)]Gal(b1-4)Glc
# Method in brief: as §1
# [18] = target: Neu5Ac(a2-3)[GalNAc(b1-4)]Gal(b1-4)GlcNAc
# Method in brief: as §1
# [19] = target: Neu5Ac(a2-3)[GalNAc(b1-4)]Gal(b1-4)GlcNAc(b1-3)GalNAc
# Method in brief: as §1
# [20] = target: Neu5Ac(a2-3)[Neu5Ac(a2-6)]GalNAc
# Method in brief: as §1
# Neu5Ac(a2-6)Gal = target: Neu5Ac(a2-6)Gal
# Method in brief: as §1
# [21] = target: Neu5Ac(a2-6)Gal(b1-3)GlcNAc(b1-3)[Gal(b1-4)GlcNAc(b1-6)]Gal(b1-4)Glc
# Method in brief: as §1
# Neu5Ac(a2-6)Gal(b1-4)Glc = target: Neu5Ac(a2-6)Gal(b1-4)Glc
# Method in brief: as §1
# [22] = target: Neu5Ac(a2-6)Gal(b1-4)GlcNAc
# Method in brief: as §1
# [23] = target: Neu5Ac(a2-6)Gal(b1-4)GlcNAc(b1-2)Man
# Method in brief: as §1
# [24] = target: Neu5Ac(a2-6)Gal(b1-4)GlcNAc(b1-2)Man(a1-3)Man(b1-4)GlcNAc(b1-4)GlcNAc
# Method in brief: as §1
# [25] = target: Neu5Ac(a2-6)Gal(b1-4)GlcNAc(b1-2)Man(a1-3)[Gal(b1-4)GlcNAc(b1-2)Man(a1-6)]Man(b1-4)GlcNAc(b1-4)GlcNAc
# Method in brief: as §1
# [26] = target: Neu5Ac(a2-6)Gal(b1-4)GlcNAc(b1-2)Man(a1-3)[GlcNAc(b1-2)Man(a1-6)]Man(b1-4)GlcNAc(b1-4)GlcNAc
# Method in brief: as §1
# [27] = target: Neu5Ac(a2-6)Gal(b1-4)GlcNAc(b1-2)Man(a1-3)[GlcNAc(b1-4)][Neu5Ac(a2-6)Gal(b1-4)GlcNAc(b1-2)Man(a1-6)]Man(b1-4)GlcNAc(b1-4)GlcNAc
# Method in brief: as §1
# [28] = target: Neu5Ac(a2-6)Gal(b1-4)GlcNAc(b1-2)Man(a1-3)[Man(a1-6)]Man(b1-4)GlcNAc(b1-4)GlcNAc
# Method in brief: as §1
# [29] = target: Neu5Ac(a2-6)Gal(b1-4)GlcNAc(b1-2)Man(a1-3)[Neu5Ac(a2-3)Gal(b1-4)GlcNAc(b1-2)Man(a1-6)]Man(b1-4)GlcNAc(b1-4)GlcNAc
# Method in brief: as §1
# [30] = target: Neu5Ac(a2-6)Gal(b1-4)GlcNAc(b1-2)Man(a1-3)[Neu5Ac(a2-6)Gal(b1-4)GlcNAc(b1-2)Man(a1-6)]Man(b1-4)GlcNAc(b1-4)GlcNAc
# Method in brief: as §1
# [31] = target: Neu5Ac(a2-6)Gal(b1-4)GlcNAc(b1-2)Man(a1-3)[Neu5Ac(a2-6)Gal(b1-4)GlcNAc(b1-2)Man(a1-6)]Man(b1-4)GlcNAc(b1-4)[Fuc(a1-6)]GlcNAc
# Method in brief: as §1
# [32] = target: Neu5Ac(a2-6)Gal(b1-4)GlcNAc(b1-2)Man(a1-6)Man(b1-4)GlcNAc(b1-4)GlcNAc
# Method in brief: as §1
# [33] = target: Neu5Ac(a2-6)Gal(b1-4)GlcNAc(b1-2)Man(a1-6)[Gal(b1-4)GlcNAc(b1-2)Man(a1-3)]Man(b1-4)GlcNAc(b1-4)GlcNAc
# Method in brief: as §1
# [34] = target: Neu5Ac(a2-6)Gal(b1-4)GlcNAc(b1-2)Man(a1-6)[GlcNAc(b1-2)Man(a1-3)]Man(b1-4)GlcNAc(b1-4)GlcNAc
# Method in brief: as §1
# [35] = target: Neu5Ac(a2-6)Gal(b1-4)GlcNAc(b1-2)Man(a1-6)[Man(a1-3)]Man(b1-4)GlcNAc(b1-4)GlcNAc
# Method in brief: as §1
# [36] = target: Neu5Ac(a2-6)Gal(b1-4)GlcNAc(b1-2)[Neu5Ac(a2-6)Gal(b1-4)GlcNAc(b1-4)]Man(a1-3)[GlcNAc(b1-4)][Neu5Ac(a2-6)Gal(b1-4)GlcNAc(b1-2)[Neu5Ac(a2-6)Gal(b1-4)GlcNAc(b1-6)]Man(a1-6)]Man(b1-4)GlcNAc(b1-4)GlcNAc
# Method in brief: as §1
# [37] = target: Neu5Ac(a2-6)Gal(b1-4)GlcNAc(b1-2)[Neu5Ac(a2-6)Gal(b1-4)GlcNAc(b1-4)]Man(a1-3)[GlcNAc(b1-4)][Neu5Ac(a2-6)Gal(b1-4)GlcNAc(b1-4)Man(a1-6)]Man(b1-4)GlcNAc(b1-4)GlcNAc
# Method in brief: as §1
# [38] = target: Neu5Ac(a2-6)Gal(b1-4)GlcNAc(b1-2)[Neu5Ac(a2-6)Gal(b1-4)GlcNAc(b1-6)]Man(a1-6)[Neu5Ac(a2-6)Gal(b1-4)GlcNAc(b1-2)Man(a1-3)][GlcNAc(b1-4)]Man(b1-4)GlcNAc(b1-4)GlcNAc
# Method in brief: as §1
# [39] = target: Neu5Ac(a2-6)Gal(b1-4)GlcNAc(b1-3)Gal(b1-3)GlcNAc
# Method in brief: as §1
# [40] = target: Neu5Ac(a2-6)Gal(b1-4)GlcNAc(b1-3)Gal(b1-4)GlcNAc
# Method in brief: as §1
# [41] = target: Neu5Ac(a2-6)Gal(b1-4)GlcNAc(b1-3)Gal(b1-4)GlcNAc(b1-2)Man(a1-3)[Neu5Ac(a2-6)Gal(b1-4)GlcNAc(b1-3)Gal(b1-4)GlcNAc(b1-2)Man(a1-6)]GalNAc
# Method in brief: as §1
# [42] = target: Neu5Ac(a2-6)Gal(b1-4)GlcNAc(b1-3)Gal(b1-4)GlcNAc(b1-3)Gal(b1-4)GlcNAc
# Method in brief: as §1
# [43] = target: Neu5Ac(a2-6)Gal(b1-4)GlcNAc(b1-3)Gal(b1-4)GlcNAc(b1-3)Gal(b1-4)GlcNAc(b1-2)Man(a1-3)[Neu5Ac(a2-6)Gal(b1-4)GlcNAc(b1-3)Gal(b1-4)GlcNAc(b1-3)Gal(b1-4)GlcNAc(b1-2)Man(a1-6)]GalNAc
# Method in brief: as §1
binder,measurement,setting,value
PX9961Q-bfa-504-27-504 (Bacteroides fragilis) (protein) NDWLDRKPADGIPSEDAITNYNDALTARTGMYDGIQGNSNATSYYGARMFYYGDVRADDMQARTQGMRSSSCYEMLYTVDDAPNMWNIPYNVIRRANRLIEAINEKKVTDATEAQIGKIYSEALVVRALVHFDLVRIYGMPYTADNGASLGVPVIVKPLERNDLPSRNTVAEVYTQVITDLTDAINSGYLAKDQTPGYINEWAAKALLTRVYLTKGDNENALKVAEDIITNSPYKLWTNEEYVNAWYKSNGAHTNEMIFEVVNASNDDWTDRNGIAYLLNENGYADAIVTKSFMNMLSQDPKDVRIGMVLPAQYDKDLQEEYGDAKIFINKFPADKDDVGEMRLNNLPLLRLSEVYLSAAEAAAKLGGHQDKAAKYLNEIVQRANPEAKAISEADATVERIILERRKEMIGEGQRYFDALRNNETIVRYKDEGDKGYHYSLIKESQSFDRTYFRAILPIPVDETNVNPNLRAQQNPGY,glycan array binding signal (z-score),[1],1.31
same,glycan array binding signal (z-score),[2],0.353
same,glycan array binding signal (z-score),[3],-0.62
same,glycan array binding signal (z-score),[4],-1.13
same,glycan array binding signal (z-score),[5],-0.693
same,glycan array binding signal (z-score),[6],-0.692
same,glycan array binding signal (z-score),[7],-0.21
same,glycan array binding signal (z-score),[8],1.29
same,glycan array binding signal (z-score),[9],-0.058
same,glycan array binding signal (z-score),[10],1.02
same,glycan array binding signal (z-score),[11],-0.244
same,glycan array binding signal (z-score),[12],0.854
same,glycan array binding signal (z-score),[13],-0.908
same,glycan array binding signal (z-score),[14],-0.501
same,glycan array binding signal (z-score),[15],-0.357
same,glycan array binding signal (z-score),Neu5Ac(a2-3)GalNAc,0.163
same,glycan array binding signal (z-score),[16],-0.763
same,glycan array binding signal (z-score),[17],0.131
same,glycan array binding signal (z-score),[18],-0.664
same,glycan array binding signal (z-score),[19],-0.113
same,glycan array binding signal (z-score),[20],-0.561
same,glycan array binding signal (z-score),Neu5Ac(a2-6)Gal,-0.089
same,glycan array binding signal (z-score),[21],6.14
same,glycan array binding signal (z-score),Neu5Ac(a2-6)Gal(b1-4)Glc,-0.12
same,glycan array binding signal (z-score),[22],-0.355
same,glycan array binding signal (z-score),[23],0.49
same,glycan array binding signal (z-score),[24],-0.505
same,glycan array binding signal (z-score),[25],-0.496
same,glycan array binding signal (z-score),[26],-0.61
same,glycan array binding signal (z-score),[27],0.048
same,glycan array binding signal (z-score),[28],-0.91
same,glycan array binding signal (z-score),[29],-0.382
same,glycan array binding signal (z-score),[30],0.054
same,glycan array binding signal (z-score),[31],-0.262
same,glycan array binding signal (z-score),[32],-0.801
same,glycan array binding signal (z-score),[33],0.613
same,glycan array binding signal (z-score),[34],-0.638
same,glycan array binding signal (z-score),[35],0.075
same,glycan array binding signal (z-score),[36],2.53
same,glycan array binding signal (z-score),[37],-0.474
same,glycan array binding signal (z-score),[38],-0.563
same,glycan array binding signal (z-score),[39],-0.346
same,glycan array binding signal (z-score),[40],-0.321
same,glycan array binding signal (z-score),[41],0.609
same,glycan array binding signal (z-score),[42],-0.019
same,glycan array binding signal (z-score),[43],1.56

# No new results follow: an excerpt of the list.
binder,measurement,setting,value
PX9961Q-bfa-504-27-504 (Bacteroides fragilis) (protein) NDWLDRKPADGIPSEDAITNYNDALTARTGMYDGIQGNSNATSYYGARMFYYGDVRADDMQARTQGMRSSSCYEMLYTVDDAPNMWNIPYNVIRRANRLIEAINEKKVTDATEAQIGKIYSEALVVRALVHFDLVRIYGMPYTADNGASLGVPVIVKPLERNDLPSRNTVAEVYTQVITDLTDAINSGYLAKDQTPGYINEWAAKALLTRVYLTKGDNENALKVAEDIITNSPYKLWTNEEYVNAWYKSNGAHTNEMIFEVVNASNDDWTDRNGIAYLLNENGYADAIVTKSFMNMLSQDPKDVRIGMVLPAQYDKDLQEEYGDAKIFINKFPADKDDVGEMRLNNLPLLRLSEVYLSAAEAAAKLGGHQDKAAKYLNEIVQRANPEAKAISEADATVERIILERRKEMIGEGQRYFDALRNNETIVRYKDEGDKGYHYSLIKESQSFDRTYFRAILPIPVDETNVNPNLRAQQNPGY,glycan array binding signal (z-score),[41],0.609
same,glycan array binding signal (z-score),[42],-0.019
